{"sequences": {"note": "Protein sequences, listed by entry. Tags and fused reporters are not part of them.", "UniProt O35964": "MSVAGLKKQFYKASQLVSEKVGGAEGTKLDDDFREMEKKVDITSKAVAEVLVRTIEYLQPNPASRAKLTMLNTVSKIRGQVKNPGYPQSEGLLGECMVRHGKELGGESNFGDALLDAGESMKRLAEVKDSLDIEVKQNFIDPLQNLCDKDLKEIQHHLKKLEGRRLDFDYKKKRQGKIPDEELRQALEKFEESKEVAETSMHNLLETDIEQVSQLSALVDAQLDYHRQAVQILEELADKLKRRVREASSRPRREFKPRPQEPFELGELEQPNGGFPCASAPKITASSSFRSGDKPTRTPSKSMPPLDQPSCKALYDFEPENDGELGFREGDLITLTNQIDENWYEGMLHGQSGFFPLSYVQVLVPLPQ", "UniProt P15311": "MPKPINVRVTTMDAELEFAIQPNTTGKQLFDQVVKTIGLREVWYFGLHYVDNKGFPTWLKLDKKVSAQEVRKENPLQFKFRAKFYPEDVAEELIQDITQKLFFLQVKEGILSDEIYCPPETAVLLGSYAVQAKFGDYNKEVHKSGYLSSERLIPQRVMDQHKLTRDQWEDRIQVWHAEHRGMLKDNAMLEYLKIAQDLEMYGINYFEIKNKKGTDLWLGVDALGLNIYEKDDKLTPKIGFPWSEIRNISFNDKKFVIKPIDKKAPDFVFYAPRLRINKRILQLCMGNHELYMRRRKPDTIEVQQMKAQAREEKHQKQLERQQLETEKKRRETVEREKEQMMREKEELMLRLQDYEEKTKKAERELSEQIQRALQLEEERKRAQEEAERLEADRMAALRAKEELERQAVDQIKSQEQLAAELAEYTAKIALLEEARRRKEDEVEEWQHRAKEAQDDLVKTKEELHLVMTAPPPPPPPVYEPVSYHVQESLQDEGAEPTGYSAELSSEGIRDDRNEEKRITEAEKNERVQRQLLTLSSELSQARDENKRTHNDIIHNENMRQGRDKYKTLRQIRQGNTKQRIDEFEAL", "UniProt Q99963": "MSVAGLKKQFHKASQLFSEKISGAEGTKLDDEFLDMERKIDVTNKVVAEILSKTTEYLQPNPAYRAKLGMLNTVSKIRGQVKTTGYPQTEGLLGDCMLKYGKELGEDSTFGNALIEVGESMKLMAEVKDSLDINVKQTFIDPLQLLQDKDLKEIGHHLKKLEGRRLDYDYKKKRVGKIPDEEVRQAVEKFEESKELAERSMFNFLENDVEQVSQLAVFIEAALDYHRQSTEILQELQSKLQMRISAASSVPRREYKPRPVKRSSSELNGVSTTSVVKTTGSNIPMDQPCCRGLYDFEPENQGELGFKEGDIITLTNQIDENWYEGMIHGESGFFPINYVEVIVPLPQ"}, "source": "paper PMC7081352", "note": "No constants are given. Whether binding was seen depends on the method and setting. In cells and extracts the contact can be indirect. Some entries that bind do so weakly or less than the wild type. Sequences can lack the tags named with a protein."}
{"molecular_target": "T1, GST-tagged CD166 cytoplasmic tail (human) (UniProt Q13740)", "T1 sequence": "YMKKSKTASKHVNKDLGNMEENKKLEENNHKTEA", "experiment": "pull-down; GST-CD166 tail on glutathione beads exposed to lysates of HeLa cells stably expressing endoA2- or endoA3-GFP-FKBP for 2 h at 4 °C; 150 mM NaCl, 25 mM HEPES pH 7.4, 2 mM EDTA, 1% NP40; five washes; immunoblot with anti-endoA2, anti-endoA3 and anti-ezrin; only the target purified"}
{"substance": "endophilin-A2, GFP-FKBP-tagged (from UniProt O35964 1-368)", "binding": "no binding"}
{"substance": "ezrin (from UniProt P15311 1-586)", "binding": "binds"}
{"substance": "human endophilin-A3, C-terminally GFP-FKBP-tagged (from UniProt Q99963 1-347)", "binding": "binds weakly"}
